Data reported in patent US6762174B1 (priority 1998, dated 2004).
This continues a long series; more values of the same kind are listed elsewhere.

System: MOPC-315 myeloma
Assay: MOPC-315 Myeloma study #3: β-alethine ip day 0 (3 × 10^5 tumor cells)

Measured: Animals Surviving

NCCC(=O)NCCSSCCNC(=O)CCN [BT, β-alethine]
8: BT 100 μg/kg, day 14 | BT 100 μg/kg, day 15 | BT 3 mg/kg, day 16
4: BT 100 ng/kg, day 16 | BT 3 μg/kg, day 16
9: BT 3 μg/kg, day 12 | BT 3 μg/kg, day 13 | BT 3 μg/kg, day 14 | BT 3 μg/kg, day 15
2: BT 100 μg/kg, day 17
7: BT 100 ng/kg, day 15
10: BT 3 μg/kg, day 10 | BT 3 μg/kg, day 11 | BT 100 μg/kg, day 10 | BT 100 μg/kg, day 11 | BT 100 μg/kg, day 12 | BT 100 μg/kg, day 13 | BT 3 mg/kg, day 10 | BT 3 mg/kg, day 11 | BT 3 mg/kg, day 12 | BT 3 mg/kg, day 13 | BT 3 mg/kg, day 14 | BT 3 mg/kg, day 15
3: BT 100 μg/kg, day 16 | BT 3 mg/kg, day 17 | BT 3 mg/kg, day 18
0: BT 3 μg/kg, day 17 | BT 100 μg/kg, day 18 | BT 3 mg/kg, day 19
